# Measured values as given in the supplement of paper PMC10849652.
# By UniProt entry, the sequences of proteins in these tests, tags left out. Where a name states a change or a piece, a line headed by the entry shows the natural chain unless it says otherwise.
# UniProt P42898: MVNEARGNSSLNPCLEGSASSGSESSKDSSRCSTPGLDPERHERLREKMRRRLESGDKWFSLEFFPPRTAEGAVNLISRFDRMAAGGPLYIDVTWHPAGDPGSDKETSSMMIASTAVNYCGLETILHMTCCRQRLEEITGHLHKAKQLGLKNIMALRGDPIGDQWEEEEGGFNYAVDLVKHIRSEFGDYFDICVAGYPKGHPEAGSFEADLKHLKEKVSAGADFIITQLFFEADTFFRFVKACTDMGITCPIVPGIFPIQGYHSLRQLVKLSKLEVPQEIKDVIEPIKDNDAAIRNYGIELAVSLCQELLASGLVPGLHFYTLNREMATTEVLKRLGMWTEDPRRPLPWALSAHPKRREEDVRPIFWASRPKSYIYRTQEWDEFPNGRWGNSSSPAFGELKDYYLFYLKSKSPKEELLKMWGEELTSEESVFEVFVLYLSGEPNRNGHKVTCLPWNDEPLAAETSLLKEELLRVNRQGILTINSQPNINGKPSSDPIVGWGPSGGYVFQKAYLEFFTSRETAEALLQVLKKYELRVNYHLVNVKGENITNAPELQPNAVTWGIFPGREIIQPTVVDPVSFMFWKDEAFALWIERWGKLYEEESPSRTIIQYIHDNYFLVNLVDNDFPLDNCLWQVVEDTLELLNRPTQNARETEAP
# UniProt O94832: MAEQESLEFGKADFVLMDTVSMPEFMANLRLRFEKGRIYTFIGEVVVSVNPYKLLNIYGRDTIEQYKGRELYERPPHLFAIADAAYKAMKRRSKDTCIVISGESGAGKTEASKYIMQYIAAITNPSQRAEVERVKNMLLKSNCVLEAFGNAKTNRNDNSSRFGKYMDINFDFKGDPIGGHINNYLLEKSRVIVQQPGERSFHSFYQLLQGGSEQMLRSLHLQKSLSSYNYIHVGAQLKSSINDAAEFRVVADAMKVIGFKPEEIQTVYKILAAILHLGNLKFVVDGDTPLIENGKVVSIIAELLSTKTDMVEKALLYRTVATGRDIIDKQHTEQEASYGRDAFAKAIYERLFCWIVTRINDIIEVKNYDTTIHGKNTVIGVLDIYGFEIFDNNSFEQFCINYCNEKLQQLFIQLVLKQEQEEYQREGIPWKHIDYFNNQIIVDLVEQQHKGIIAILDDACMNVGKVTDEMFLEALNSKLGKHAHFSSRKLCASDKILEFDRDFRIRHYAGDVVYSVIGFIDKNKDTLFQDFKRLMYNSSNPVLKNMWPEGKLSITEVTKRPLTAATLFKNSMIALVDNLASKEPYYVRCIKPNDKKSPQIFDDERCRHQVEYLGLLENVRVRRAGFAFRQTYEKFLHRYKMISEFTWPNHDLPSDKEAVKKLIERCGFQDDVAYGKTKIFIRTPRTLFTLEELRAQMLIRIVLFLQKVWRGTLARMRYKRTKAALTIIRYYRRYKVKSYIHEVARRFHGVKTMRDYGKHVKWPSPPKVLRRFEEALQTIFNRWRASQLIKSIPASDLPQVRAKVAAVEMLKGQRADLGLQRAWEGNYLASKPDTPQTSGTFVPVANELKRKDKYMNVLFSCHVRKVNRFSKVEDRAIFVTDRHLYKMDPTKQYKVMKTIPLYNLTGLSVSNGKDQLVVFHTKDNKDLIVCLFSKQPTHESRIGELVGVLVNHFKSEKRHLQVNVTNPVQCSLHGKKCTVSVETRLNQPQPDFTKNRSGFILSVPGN
# UniProt P00403, whole entry, looked up: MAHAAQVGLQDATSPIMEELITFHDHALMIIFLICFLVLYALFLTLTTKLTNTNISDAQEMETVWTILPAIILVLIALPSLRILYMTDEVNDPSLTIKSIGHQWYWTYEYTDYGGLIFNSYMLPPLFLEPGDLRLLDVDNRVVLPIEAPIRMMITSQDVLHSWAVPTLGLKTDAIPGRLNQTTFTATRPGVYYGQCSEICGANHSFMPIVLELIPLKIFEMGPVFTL
# UniProt P58546, whole entry, looked up: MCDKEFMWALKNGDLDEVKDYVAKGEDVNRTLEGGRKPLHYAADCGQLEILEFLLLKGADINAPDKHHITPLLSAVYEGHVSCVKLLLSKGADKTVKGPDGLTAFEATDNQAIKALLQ
# UniProt P20585: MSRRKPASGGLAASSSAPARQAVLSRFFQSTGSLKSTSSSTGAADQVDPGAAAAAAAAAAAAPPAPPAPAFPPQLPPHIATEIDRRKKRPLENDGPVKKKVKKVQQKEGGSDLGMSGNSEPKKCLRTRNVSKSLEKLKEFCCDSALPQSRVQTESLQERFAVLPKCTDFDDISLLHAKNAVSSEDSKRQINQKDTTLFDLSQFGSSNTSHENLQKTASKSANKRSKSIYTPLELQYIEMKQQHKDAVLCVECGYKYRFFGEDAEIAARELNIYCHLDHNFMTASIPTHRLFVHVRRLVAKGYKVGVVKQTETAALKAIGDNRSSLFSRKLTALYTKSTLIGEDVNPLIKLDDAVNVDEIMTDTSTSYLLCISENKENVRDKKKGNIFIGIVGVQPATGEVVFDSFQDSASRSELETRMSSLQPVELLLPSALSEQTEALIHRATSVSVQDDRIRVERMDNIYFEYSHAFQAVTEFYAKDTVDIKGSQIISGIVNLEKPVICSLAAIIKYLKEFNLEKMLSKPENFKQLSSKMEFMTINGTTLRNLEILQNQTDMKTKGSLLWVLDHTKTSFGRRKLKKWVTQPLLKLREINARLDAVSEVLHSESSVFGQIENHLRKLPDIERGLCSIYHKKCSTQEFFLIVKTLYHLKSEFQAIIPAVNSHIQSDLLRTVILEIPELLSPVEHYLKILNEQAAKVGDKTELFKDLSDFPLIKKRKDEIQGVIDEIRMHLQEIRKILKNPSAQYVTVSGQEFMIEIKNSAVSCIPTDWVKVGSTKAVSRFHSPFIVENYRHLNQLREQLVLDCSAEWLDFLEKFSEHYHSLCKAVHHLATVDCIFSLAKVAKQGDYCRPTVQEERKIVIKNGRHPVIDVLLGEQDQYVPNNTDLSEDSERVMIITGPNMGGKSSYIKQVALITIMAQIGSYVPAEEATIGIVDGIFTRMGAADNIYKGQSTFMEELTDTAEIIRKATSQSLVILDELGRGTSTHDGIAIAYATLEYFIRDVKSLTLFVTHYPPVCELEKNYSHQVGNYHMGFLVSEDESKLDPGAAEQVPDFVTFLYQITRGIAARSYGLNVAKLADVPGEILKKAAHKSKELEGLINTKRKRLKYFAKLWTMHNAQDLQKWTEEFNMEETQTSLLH
# UniProt Q8NCE2: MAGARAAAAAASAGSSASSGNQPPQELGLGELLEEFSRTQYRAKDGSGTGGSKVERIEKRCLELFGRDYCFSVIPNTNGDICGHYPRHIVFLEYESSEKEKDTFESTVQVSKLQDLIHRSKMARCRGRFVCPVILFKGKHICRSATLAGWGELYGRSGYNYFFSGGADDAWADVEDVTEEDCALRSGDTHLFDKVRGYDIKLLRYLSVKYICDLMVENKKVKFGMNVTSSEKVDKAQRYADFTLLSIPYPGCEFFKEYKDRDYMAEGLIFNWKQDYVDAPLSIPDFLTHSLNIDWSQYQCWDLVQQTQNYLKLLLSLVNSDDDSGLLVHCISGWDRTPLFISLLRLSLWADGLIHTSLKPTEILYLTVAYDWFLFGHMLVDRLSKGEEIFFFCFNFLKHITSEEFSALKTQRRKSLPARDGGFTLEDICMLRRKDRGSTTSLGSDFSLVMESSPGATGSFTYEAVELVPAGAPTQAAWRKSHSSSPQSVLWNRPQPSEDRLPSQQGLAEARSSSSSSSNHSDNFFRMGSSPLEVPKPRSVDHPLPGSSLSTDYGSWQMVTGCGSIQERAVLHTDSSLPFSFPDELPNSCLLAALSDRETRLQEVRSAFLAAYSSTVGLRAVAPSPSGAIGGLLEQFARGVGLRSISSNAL
# The other results are listed elsewhere or left out.
# Tests used:
# Assay in all cases: log2 fold change, soluble protein after heating vs DMSO (PISA); higher = thermal stabilisation; K562 cells, 10 uM, 30 min; active = over 0.2 and 3.5 SD of the protein, either way, in both replicates (recomputed)
# [1] = compound: COC1=CC=C(C=C1)CN2C=CC3=C2C=C(C=C3)C(=O)NO
# Summary of the method: (§1)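 Soluble protein was defined as the supernatant after 21,000xg for 90 min. It came from K562 cells at 2×10^6 cells/mL given 10 μM compound for 30 min, heated in aliquots for 3 min across 48°C-58°C, pooled, and extracted in PBS with 0.5% NP-40 at 4°C, and was quantified by TMTpro 16plex LC-MS/MS with equalised channel sums. Thermal stability against control samples, from duplicates, is reported as log2 fold change.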
# filanesib = compound: CON(C)C(=O)N1N=C(c2cc(F)ccc2F)S[C@@]1(CCCN)c1ccccc1 [filanesib]
# Summary of the method: as §1
# zotarolimus = compound: CO[C@H]1C[C@@H]2CC[C@@H](C)[C@@](O)(O2)C(=O)C(=O)N2CCCC[C@H]2C(=O)O[C@H]([C@H](C)C[C@@H]2CC[C@H](n3cnnn3)[C@H](OC)C2)CC(=O)[C@H](C)/C=C(\C)[C@@H](O)[C@@H](OC)C(=O)[C@H](C)C[C@H](C)/C=C/C=C/C=C/1C [zotarolimus]
# Summary of the method: as §1
# idasanutlin = compound: COc1cc(C(=O)O)ccc1NC(=O)[C@@H]1N[C@@H](CC(C)(C)C)[C@](C#N)(c2ccc(Cl)cc2F)[C@H]1c1cccc(Cl)c1F [idasanutlin]
# Summary of the method: as §1
# alisertib = compound: COc1cc(Nc2ncc3c(n2)-c2ccc(Cl)cc2C(c2c(F)cccc2OC)=NC3)ccc1C(=O)O [alisertib]
# Summary of the method: as §1
# [2] = compound: COc1cc2nc(-c3cc(F)ccc3O)nc(N[C@@H]3CNC[C@H]3C(C)(C)O)c2cc1OC
# Summary of the method: as §1
# gefitinib = compound: COc1cc2ncnc(Nc3ccc(F)c(Cl)c3)c2cc1OCCCN1CCOCC1 [gefitinib]
# Summary of the method: as §1
# [3] = compound: COc1cccc2cc(-c3nc([C@H]4CC[C@H](C(=O)O)CC4)n4ncnc(N)c34)[nH]c12
# Summary of the method: as §1
# lapatinib = compound: CS(=O)(=O)CCNCc1ccc(-c2ccc3ncnc(Nc4ccc(OCc5cccc(F)c5)c(Cl)c4)c3c2)o1 [lapatinib]
# Summary of the method: as §1
# pictilisib = compound: CS(=O)(=O)N1CCN(Cc2cc3nc(-c4cccc5[nH]ncc45)nc(N4CCOCC4)c3s2)CC1 [pictilisib]
# Summary of the method: as §1
# [4] = compound: CS(=O)(=O)c1ccc(-c2cnc(N)c(C(=O)Nc3ccccc3)n2)cc1
# Summary of the method: as §1
# crizotinib = compound: C[C@@H](Oc1cc(-c2cnn(C3CCNCC3)c2)cnc1N)c1c(Cl)ccc(F)c1Cl [crizotinib]
# Summary of the method: as §1
# [5] = compound: C[C@@H]1COCCN1C2=NC(=NC(=C2)C3(CC3)S(=O)(=O)C)C4=C5C=CNC5=CC=C4
# Summary of the method: as §1
# [6] = compound: C[C@H](C1=CC=C(C=C1)C(=O)NC2=C3C=CNC3=NC=C2)N
# Summary of the method: as §1
# gandotinib = compound: Cc1cc(Nc2cc(CN3CCOCC3)c3nc(C)c(Cc4ccc(Cl)cc4F)n3n2)n[nH]1 [gandotinib]
# Summary of the method: as §1
# [7] = compound: Cc1cc(SCc2sc(-c3ccc(C(F)(F)F)cc3)nc2C)ccc1OCC(=O)O
# Summary of the method: as §1
# doramapimod = compound: Cc1ccc(-n2nc(C(C)(C)C)cc2NC(=O)Nc2ccc(OCCN3CCOCC3)c3ccccc23)cc1 [doramapimod]
# Summary of the method: as §1
# ispinesib = compound: Cc1ccc(C(=O)N(CCCN)[C@@H](c2nc3cc(Cl)ccc3c(=O)n2Cc2ccccc2)C(C)C)cc1 [ispinesib]
# Summary of the method: as §1
# duvelisib = compound: C[C@H](Nc1ncnc2nc[nH]c12)c1cc2cccc(Cl)c2c(=O)n1-c1ccccc1 [duvelisib]
# Summary of the method: as §1
# tozasertib = compound: Cc1cc(Nc2cc(N3CCN(C)CC3)nc(Sc3ccc(NC(=O)C4CC4)cc3)n2)n[nH]1 [tozasertib]
# Summary of the method: as §1
Target,log2 fold change [1],log2 fold change (filanesib),log2 fold change (zotarolimus),log2 fold change (idasanutlin),log2 fold change (alisertib),log2 fold change [2],log2 fold change (gefitinib),log2 fold change [3],log2 fold change (lapatinib),log2 fold change (pictilisib),log2 fold change [4],log2 fold change (crizotinib),log2 fold change [5],log2 fold change [6],log2 fold change (gandotinib),log2 fold change [7],log2 fold change (doramapimod),log2 fold change (ispinesib),log2 fold change (duvelisib),log2 fold change (tozasertib)
MRPS31 (UniProt Q92665),inactive: 0.016,inactive: 0.029,inactive: 0.03,inactive: -0.202,inactive: -0.008,inactive: -0.025,inactive: -0.077,inactive: -0.016,inactive: 0.054,inactive: -0.005,inactive: 0.063,inactive: 0.024,inactive: 0.027,inactive: 0.199,inactive: 0.121,inactive: 0.073,inactive: 0,active: -0.28,–,–
MRPS18A isoform 2 (UniProt Q9NVS2),inactive: -0.043,inactive: 0.174,inactive: 0.137,inactive: -0.034,inactive: -0.159,inactive: 0.045,inactive: -0.015,inactive: -0.066,inactive: -0.001,inactive: 0.036,inactive: 0.044,inactive: 0.002,inactive: -0.124,inactive: 0.324,inactive: 0.118,inactive: 0.076,inactive: 0.12,inactive: -0.159,inactive: -0.129,inactive: 0.033
MRPS12 (UniProt O15235),inactive: 0.018,inactive: 0.074,inactive: 0.039,inactive: -0.162,inactive: -0.03,inactive: -0.088,inactive: -0.078,inactive: -0.062,inactive: 0.082,inactive: -0.177,inactive: 0.046,inactive: -0.075,inactive: 0.015,inactive: 0.311,inactive: 0.063,inactive: 0.022,inactive: 0.003,active: -0.65,–,–
MTHFR isoform 2 (UniProt P42898),inactive: -0.174,inactive: -0.106,inactive: 0.008,inactive: -0.111,inactive: -0.057,inactive: 0.053,inactive: 0.012,inactive: 0.047,inactive: -0.021,inactive: 0.012,inactive: 0.07,inactive: -0.03,inactive: 0.151,inactive: -0.013,inactive: 0.037,inactive: 0.007,inactive: 0.02,inactive: -0.017,inactive: 0.086,inactive: -0.021
MRPS10 (UniProt P82664),inactive: -0.041,inactive: 0.045,inactive: 0.08,inactive: -0.088,inactive: -0.014,inactive: -0.017,inactive: -0.042,inactive: 0.012,inactive: 0.069,inactive: -0.112,inactive: 0.028,inactive: 0.005,inactive: -0.033,inactive: 0.08,inactive: 0.019,inactive: 0.002,inactive: 0.029,active: -0.265,–,–
MYO1D (UniProt O94832),inactive: -0.019,inactive: 0.132,inactive: 0.039,inactive: 0.059,inactive: 0,inactive: -0.025,inactive: 0.038,inactive: -0.071,inactive: -0.035,inactive: -0.073,inactive: 0.057,inactive: -0.06,inactive: -0.185,inactive: 0.258,inactive: 0.088,inactive: -0.014,inactive: 0.152,inactive: -0.156,inactive: -0.162,inactive: 0.002
MT-CO2 (UniProt P00403),inactive: -0.278,inactive: 0.056,inactive: 0.012,inactive: -0.098,inactive: -0.067,inactive: -0.097,inactive: 0.036,inactive: 0.028,inactive: -0.046,inactive: 0,inactive: -0.008,inactive: -0.006,inactive: 0.18,inactive: -0.082,inactive: 0.051,inactive: -0.024,inactive: 0.083,inactive: 0.024,inactive: 0.161,inactive: 0.045
MRPS23 (UniProt Q9Y3D9),inactive: -0.054,inactive: 0.054,inactive: 0.049,inactive: -0.22,inactive: -0.026,inactive: -0.049,inactive: -0.046,inactive: 0.046,inactive: 0.062,inactive: -0.055,inactive: 0.014,inactive: -0.028,inactive: 0.095,inactive: 0.136,inactive: -0.134,inactive: 0.084,inactive: 0.034,inactive: -0.214,inactive: -0.021,inactive: 0.011
MRPS25 (UniProt P82663),inactive: 0.066,inactive: 0.029,inactive: 0.053,inactive: -0.185,inactive: -0.038,inactive: -0.055,inactive: 0.058,inactive: -0.046,inactive: 0.08,inactive: 0.063,inactive: -0.018,inactive: -0.082,inactive: -0.103,inactive: 0.165,inactive: -0.109,inactive: 0.121,inactive: -0.083,active: -0.438,–,–
MTPN (UniProt P58546),inactive: 0.05,inactive: 0.098,inactive: 0.074,inactive: 0.004,inactive: -0.145,inactive: -0.051,inactive: 0.034,inactive: -0.003,inactive: -0.062,inactive: -0.035,inactive: 0.014,inactive: 0.202,inactive: -0.003,inactive: -0.147,inactive: 0.211,inactive: 0.081,inactive: -0.045,inactive: 0.304,inactive: 0.205,inactive: 0.167
MRPS17 (UniProt Q9Y2R5),inactive: -0.089,inactive: 0.038,inactive: 0.047,inactive: -0.254,inactive: -0.043,inactive: -0.025,inactive: 0.039,inactive: -0.016,inactive: 0.113,inactive: 0.035,inactive: 0.038,inactive: 0.034,inactive: 0.097,inactive: 0.076,inactive: -0.06,inactive: 0.166,inactive: 0.033,active: -0.345,–,–
MYCBP2 (UniProt O75592),inactive: -0.52,inactive: 0.363,inactive: -0.043,inactive: -0.038,inactive: 0.062,inactive: 0.323,inactive: 0.036,inactive: 0.461,inactive: -0.104,inactive: 0.227,inactive: 0.057,inactive: 0.107,inactive: -0.155,inactive: 0.017,inactive: 0.089,inactive: -0.03,inactive: 0.225,inactive: -0.359,inactive: -0.454,inactive: -0.045
MRPS24 (UniProt Q96EL2),inactive: -0.153,inactive: 0.047,inactive: 0.088,inactive: -0.134,inactive: -0.104,inactive: 0.096,inactive: -0.056,inactive: -0.014,inactive: 0.047,inactive: -0.174,inactive: 0.014,inactive: -0.031,inactive: 0.192,inactive: 0.082,inactive: -0.117,inactive: 0.094,inactive: -0.028,active: -0.427,–,–
"MUC1, A0A087WWM1",inactive: -0.089,inactive: 0.078,inactive: 0.005,inactive: 0.022,inactive: -0.035,inactive: 0.013,inactive: 0.083,inactive: 0.298,inactive: -0.003,inactive: 0.128,inactive: 0.045,inactive: 0.051,inactive: -0.01,inactive: -0.15,inactive: 0.055,inactive: -0.151,inactive: 0.004,inactive: 0.088,inactive: 0.165,inactive: -0.041
MSH3 (UniProt P20585),inactive: -0.074,inactive: 0.005,inactive: 0.036,inactive: -0.004,inactive: 0.008,inactive: 0.093,inactive: 0.005,inactive: 0,inactive: 0.042,inactive: -0.006,inactive: -0.029,inactive: 0.045,inactive: -0.031,inactive: 0.047,inactive: -0.096,inactive: 0.024,inactive: 0.035,inactive: 0.088,–,–
MRPS6 (UniProt P82932),inactive: 0.204,inactive: -0.019,inactive: 0.038,active: -0.275,inactive: 0.029,inactive: 0.012,inactive: -0.051,inactive: -0.081,inactive: 0.035,inactive: -0.003,inactive: -0.038,inactive: -0.076,inactive: 0.117,inactive: 0.085,inactive: -0.016,inactive: 0.081,inactive: 0.048,inactive: -0.208,–,–
MTMR14 (UniProt Q8NCE2),inactive: 0.007,inactive: 0.026,inactive: -0.04,inactive: 0.02,inactive: -0.04,inactive: 0.069,inactive: -0.02,inactive: 0.017,inactive: -0.075,inactive: 0.083,inactive: 0.033,inactive: 0.069,inactive: -0.054,inactive: 0.014,inactive: 0.144,inactive: 0.079,inactive: -0.03,inactive: 0.061,–,–

# Nothing new here: entries from further up.
Target,log2 fold change [1],log2 fold change (filanesib),log2 fold change (zotarolimus),log2 fold change (idasanutlin),log2 fold change (alisertib),log2 fold change [2],log2 fold change (gefitinib),log2 fold change [3],log2 fold change (lapatinib),log2 fold change (pictilisib),log2 fold change [4],log2 fold change (crizotinib),log2 fold change [5],log2 fold change [6],log2 fold change (gandotinib),log2 fold change [7],log2 fold change (doramapimod),log2 fold change (ispinesib),log2 fold change (duvelisib),log2 fold change (tozasertib)
MSH3 (UniProt P20585),inactive: -0.074,inactive: 0.005,inactive: 0.036,inactive: -0.004,inactive: 0.008,inactive: 0.093,inactive: 0.005,inactive: 0,inactive: 0.042,inactive: -0.006,inactive: -0.029,inactive: 0.045,inactive: -0.031,inactive: 0.047,inactive: -0.096,inactive: 0.024,inactive: 0.035,inactive: 0.088,–,–
MRPS6 (UniProt P82932),inactive: 0.204,inactive: -0.019,inactive: 0.038,active: -0.275,inactive: 0.029,inactive: 0.012,inactive: -0.051,inactive: -0.081,inactive: 0.035,inactive: -0.003,inactive: -0.038,inactive: -0.076,inactive: 0.117,inactive: 0.085,inactive: -0.016,inactive: 0.081,inactive: 0.048,inactive: -0.208,–,–
